This is one part of the list.
Assays:
Test in all cases: log2 fold change, soluble protein after heating vs DMSO (PISA); higher = thermal stabilisation; K562 cells, 10 uM, 30 min; active = over 0.2 and 3.5 SD of the protein, either way, in both replicates (recomputed)
[1] = compound: C1=CC=C(C=C1)[C@H](COC2=CC3=C(C=C2)NC(=O)N3)NC(=O)C4=CC=CN(C4=O)CC5=CC(=C(C=C5)F)F
Outline: (§1)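 Soluble protein was defined as the supernatant after 21,000xg for 90 min. It came from K562 cells at 2×10^6 cells/mL given 10 μM compound for 30 min, heated in aliquots for 3 min across 48°C-58°C, pooled, and extracted in PBS with 0.5% NP-40 at 4°C, and was quantified by TMTpro 16plex LC-MS/MS with equalised channel sums. Thermal stability against control samples, from duplicates, is reported as log2 fold change.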

Sequences of proteins named here, by UniProt entry; tags and fusion partners are left off. A change or cut given only in a name is not applied to a line headed by its entry.
UniProt Q969M3: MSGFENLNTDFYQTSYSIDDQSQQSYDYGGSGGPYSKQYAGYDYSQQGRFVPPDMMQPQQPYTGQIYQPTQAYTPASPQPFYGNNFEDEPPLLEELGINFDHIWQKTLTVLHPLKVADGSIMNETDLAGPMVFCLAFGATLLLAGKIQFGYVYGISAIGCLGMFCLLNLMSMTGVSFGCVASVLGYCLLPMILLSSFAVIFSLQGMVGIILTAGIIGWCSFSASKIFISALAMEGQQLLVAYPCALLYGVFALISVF
UniProt O15498: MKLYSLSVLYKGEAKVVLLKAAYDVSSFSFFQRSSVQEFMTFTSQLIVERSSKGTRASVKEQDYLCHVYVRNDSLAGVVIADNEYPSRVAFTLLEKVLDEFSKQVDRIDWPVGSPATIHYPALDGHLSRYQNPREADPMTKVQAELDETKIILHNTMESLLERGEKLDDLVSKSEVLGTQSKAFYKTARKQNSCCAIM
UniProt Q8N4Q0: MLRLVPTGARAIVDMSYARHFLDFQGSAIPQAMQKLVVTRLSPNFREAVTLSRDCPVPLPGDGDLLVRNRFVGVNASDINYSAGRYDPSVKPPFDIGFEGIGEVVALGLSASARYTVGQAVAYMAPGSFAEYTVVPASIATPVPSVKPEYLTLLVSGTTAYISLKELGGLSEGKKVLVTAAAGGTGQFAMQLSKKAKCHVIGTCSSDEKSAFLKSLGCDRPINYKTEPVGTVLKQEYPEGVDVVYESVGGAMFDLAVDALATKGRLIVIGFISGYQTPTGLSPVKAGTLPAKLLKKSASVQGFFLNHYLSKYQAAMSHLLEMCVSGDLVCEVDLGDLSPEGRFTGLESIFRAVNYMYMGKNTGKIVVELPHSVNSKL
UniProt P51811: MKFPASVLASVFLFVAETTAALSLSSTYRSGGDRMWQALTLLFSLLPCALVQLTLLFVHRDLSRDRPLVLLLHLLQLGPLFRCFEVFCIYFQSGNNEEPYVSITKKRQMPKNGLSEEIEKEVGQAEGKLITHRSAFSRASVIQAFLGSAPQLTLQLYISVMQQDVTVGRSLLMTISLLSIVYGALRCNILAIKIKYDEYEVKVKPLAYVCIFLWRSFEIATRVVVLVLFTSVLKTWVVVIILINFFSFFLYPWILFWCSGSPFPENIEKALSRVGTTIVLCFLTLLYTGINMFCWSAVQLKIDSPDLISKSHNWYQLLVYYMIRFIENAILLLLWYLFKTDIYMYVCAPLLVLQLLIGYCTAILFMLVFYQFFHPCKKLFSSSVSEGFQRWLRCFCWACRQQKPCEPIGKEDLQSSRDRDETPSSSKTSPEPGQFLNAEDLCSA
UniProt Q7Z7L7: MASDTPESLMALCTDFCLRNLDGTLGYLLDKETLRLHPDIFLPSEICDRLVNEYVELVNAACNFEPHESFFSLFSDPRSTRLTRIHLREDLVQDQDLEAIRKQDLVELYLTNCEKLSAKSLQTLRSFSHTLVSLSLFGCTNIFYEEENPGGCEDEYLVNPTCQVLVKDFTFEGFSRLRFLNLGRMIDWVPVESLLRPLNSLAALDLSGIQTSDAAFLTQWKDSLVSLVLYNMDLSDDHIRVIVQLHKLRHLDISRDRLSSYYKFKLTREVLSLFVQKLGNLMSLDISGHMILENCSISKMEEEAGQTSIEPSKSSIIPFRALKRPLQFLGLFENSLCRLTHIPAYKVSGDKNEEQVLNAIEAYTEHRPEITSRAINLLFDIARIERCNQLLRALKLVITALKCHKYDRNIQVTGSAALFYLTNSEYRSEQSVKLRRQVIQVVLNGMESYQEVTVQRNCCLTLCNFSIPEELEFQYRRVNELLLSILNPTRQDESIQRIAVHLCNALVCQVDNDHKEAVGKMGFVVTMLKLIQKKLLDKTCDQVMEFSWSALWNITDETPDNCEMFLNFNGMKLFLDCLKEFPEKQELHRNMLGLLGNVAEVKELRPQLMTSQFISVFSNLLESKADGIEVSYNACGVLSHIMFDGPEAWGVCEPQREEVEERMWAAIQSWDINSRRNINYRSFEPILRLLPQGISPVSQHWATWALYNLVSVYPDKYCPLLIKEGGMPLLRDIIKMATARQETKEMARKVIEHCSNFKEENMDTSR
UniProt Q6NZY4: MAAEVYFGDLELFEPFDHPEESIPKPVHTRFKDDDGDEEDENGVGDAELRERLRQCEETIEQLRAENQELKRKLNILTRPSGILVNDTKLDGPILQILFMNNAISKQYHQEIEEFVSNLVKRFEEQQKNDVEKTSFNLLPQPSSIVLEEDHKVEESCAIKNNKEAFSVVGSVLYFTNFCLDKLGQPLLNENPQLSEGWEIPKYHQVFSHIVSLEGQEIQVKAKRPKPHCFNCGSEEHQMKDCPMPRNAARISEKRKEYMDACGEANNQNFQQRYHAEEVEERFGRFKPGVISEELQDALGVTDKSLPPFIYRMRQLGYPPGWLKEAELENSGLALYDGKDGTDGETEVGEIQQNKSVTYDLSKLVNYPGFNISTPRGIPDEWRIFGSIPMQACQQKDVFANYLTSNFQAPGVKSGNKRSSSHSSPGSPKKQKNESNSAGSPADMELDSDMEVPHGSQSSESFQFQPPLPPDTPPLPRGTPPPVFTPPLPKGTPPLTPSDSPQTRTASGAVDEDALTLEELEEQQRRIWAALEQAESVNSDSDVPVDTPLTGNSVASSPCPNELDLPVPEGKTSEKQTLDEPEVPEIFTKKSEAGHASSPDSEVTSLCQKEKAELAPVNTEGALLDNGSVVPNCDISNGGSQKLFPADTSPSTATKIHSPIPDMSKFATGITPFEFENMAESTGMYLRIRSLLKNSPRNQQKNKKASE
UniProt O75844: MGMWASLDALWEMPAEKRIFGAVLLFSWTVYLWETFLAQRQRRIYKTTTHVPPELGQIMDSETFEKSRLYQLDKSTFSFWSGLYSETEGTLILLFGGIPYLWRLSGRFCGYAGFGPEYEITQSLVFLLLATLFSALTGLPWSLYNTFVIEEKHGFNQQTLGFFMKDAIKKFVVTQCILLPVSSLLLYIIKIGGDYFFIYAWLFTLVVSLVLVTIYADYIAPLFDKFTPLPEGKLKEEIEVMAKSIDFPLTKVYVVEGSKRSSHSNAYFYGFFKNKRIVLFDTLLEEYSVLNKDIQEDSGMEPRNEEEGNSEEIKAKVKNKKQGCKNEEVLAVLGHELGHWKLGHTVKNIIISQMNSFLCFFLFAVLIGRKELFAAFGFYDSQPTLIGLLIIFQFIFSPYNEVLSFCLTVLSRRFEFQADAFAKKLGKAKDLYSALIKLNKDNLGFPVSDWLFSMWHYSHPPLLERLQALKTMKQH
UniProt O75152: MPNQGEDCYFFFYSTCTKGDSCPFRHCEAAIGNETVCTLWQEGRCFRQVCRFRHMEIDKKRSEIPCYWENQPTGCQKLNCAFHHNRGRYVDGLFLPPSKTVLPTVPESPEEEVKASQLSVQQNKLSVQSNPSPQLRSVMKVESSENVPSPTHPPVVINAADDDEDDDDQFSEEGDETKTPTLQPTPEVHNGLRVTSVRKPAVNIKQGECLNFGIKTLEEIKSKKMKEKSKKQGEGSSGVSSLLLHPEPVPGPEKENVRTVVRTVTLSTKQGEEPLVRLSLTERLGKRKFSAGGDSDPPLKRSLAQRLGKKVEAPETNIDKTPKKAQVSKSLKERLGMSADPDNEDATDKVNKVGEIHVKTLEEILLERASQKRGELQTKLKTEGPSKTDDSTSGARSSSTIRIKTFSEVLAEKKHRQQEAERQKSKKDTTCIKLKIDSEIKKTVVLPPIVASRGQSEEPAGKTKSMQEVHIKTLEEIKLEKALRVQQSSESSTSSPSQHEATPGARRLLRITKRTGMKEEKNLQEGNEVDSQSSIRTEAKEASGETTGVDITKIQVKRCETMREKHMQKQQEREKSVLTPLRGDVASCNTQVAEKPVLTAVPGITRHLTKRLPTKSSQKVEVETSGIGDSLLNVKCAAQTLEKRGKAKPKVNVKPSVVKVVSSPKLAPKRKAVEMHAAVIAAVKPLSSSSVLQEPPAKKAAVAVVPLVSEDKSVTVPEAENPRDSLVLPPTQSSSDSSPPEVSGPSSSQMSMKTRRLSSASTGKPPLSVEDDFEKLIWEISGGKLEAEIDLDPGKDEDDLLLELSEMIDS
UniProt Q9NUE0: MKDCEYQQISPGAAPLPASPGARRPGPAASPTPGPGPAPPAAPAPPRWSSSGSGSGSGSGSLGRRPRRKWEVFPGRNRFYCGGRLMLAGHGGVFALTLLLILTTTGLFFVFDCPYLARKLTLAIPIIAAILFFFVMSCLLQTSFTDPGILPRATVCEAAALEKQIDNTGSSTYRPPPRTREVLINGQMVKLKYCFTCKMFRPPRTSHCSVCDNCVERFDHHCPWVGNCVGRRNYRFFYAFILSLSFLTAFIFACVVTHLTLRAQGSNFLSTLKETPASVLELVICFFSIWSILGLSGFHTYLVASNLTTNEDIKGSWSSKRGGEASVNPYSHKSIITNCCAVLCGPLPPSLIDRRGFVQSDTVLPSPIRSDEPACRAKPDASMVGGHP
UniProt Q9C0B5: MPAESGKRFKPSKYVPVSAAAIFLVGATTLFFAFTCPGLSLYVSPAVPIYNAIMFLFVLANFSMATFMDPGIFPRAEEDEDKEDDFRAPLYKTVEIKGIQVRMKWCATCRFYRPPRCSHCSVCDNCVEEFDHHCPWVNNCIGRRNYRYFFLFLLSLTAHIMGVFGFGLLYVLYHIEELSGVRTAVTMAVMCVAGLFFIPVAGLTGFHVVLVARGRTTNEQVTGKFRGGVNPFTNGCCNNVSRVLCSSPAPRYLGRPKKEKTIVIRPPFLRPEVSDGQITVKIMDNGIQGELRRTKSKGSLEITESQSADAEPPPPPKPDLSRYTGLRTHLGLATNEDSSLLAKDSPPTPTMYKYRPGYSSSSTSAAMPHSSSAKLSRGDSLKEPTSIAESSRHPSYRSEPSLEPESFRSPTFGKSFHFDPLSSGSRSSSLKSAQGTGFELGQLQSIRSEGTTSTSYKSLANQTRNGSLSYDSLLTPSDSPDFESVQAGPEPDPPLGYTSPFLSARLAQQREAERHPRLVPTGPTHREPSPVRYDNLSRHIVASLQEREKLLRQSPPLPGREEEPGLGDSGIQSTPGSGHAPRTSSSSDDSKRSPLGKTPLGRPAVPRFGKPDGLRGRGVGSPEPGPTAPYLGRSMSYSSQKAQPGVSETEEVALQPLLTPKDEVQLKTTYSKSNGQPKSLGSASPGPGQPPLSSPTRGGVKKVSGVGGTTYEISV

[2] = compound: CC1=C(SC2=C1C(=N[C@H](C3=NN=C(N32)C)CC(=O)N)C4=CC=C(C=C4)Cl)C
Outline: as §1

[3] = compound: CC1=C2C(=CC=C1)N=C(N(C2=O)C3=CC=CC=C3C)CN4C=NC5=C(N=CN=C54)N
Outline: as §1

[4] = compound: Cc1sc2c(c1C)C(c1ccc(Cl)cc1)=N[C@@H](CC(=O)OC(C)(C)C)c1nnc(C)n1-2
Outline: as §1

[5] = compound: c1ccc([C@@H]2C[C@H]2NC2CCNCC2)cc1
Outline: as §1

Measured: log2 fold change

YIPF5 isoform 3 (UniProt Q969M3)
inactive: [1] 0 | [2] 0.025 | [3] 0.018 | [4] 0.002 | [5] 0.08

YKT6 (UniProt O15498)
inactive: [1] 0.014 | [2] 0.012 | [3] 0.025 | [4] -0.001 | [5] -0.01

ZADH2 (UniProt Q8N4Q0)
inactive: [1] 0.012 | [2] -0.039 | [3] -0.076 | [4] -0.026 | [5] 0.008

XK (UniProt P51811)
inactive: [1] -0.025 | [2] 0.159 | [3] -0.105 | [5] -0.071

ZER1 (UniProt Q7Z7L7)
inactive: [1] 0 | [2] -0.007 | [3] 0.018 | [4] -0.064 | [5] -0.03

ZCCHC8 (UniProt Q6NZY4)
inactive: [1] 0.017 | [2] 0.009 | [3] -0.045 | [4] 0.026 | [5] 0.025

ZMPSTE24 (UniProt O75844)
inactive: [1] -0.009 | [2] 0.052 | [3] -0.006 | [4] -0.064 | [5] 0.02

ZC3H11A (UniProt O75152)
inactive: [1] 0.142 | [2] -0.129 | [3] -0.056 | [5] 0.167

ZDHHC18 (UniProt Q9NUE0)
inactive: [1] -0.074 | [2] 0.097 | [4] -0.209 | [5] -0.006

ZDHHC5 (UniProt Q9C0B5)
inactive: [1] 0.015 | [2] 0.007 | [3] 0.04 | [4] -0.013 | [5] 0.077
